{"sequences": {"note": "Amino acid sequences for entries named in this document (tags omitted). A change or cut given only in a name is not applied to a line headed by its entry.", "UniProt Q9UKU0": "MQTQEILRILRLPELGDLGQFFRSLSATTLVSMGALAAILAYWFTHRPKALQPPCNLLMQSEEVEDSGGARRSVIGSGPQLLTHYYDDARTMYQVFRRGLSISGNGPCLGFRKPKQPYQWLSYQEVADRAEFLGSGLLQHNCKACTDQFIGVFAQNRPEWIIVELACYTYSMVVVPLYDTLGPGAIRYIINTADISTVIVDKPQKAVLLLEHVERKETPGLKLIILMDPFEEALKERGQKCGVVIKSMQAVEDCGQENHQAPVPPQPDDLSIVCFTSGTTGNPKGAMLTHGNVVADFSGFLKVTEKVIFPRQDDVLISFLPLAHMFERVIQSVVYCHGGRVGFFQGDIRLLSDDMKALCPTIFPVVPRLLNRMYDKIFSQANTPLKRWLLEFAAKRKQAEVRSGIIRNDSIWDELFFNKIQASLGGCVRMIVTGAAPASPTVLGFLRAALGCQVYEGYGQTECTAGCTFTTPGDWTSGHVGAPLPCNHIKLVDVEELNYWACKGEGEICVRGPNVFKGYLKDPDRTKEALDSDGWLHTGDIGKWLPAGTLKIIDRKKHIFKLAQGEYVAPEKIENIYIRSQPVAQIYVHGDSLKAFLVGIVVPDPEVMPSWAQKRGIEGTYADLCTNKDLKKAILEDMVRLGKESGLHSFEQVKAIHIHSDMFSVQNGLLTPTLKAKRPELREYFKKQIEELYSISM", "UniProt Q9BQI0": "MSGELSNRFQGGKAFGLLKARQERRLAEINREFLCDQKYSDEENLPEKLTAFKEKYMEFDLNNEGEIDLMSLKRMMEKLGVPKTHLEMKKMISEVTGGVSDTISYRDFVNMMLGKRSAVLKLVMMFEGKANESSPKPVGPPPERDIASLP", "UniProt Q6RW13": "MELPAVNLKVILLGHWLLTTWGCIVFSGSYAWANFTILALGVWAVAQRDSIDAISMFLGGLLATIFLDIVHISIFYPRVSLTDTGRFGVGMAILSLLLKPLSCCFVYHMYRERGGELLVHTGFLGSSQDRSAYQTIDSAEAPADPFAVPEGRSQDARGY", "UniProt Q9NRZ5": "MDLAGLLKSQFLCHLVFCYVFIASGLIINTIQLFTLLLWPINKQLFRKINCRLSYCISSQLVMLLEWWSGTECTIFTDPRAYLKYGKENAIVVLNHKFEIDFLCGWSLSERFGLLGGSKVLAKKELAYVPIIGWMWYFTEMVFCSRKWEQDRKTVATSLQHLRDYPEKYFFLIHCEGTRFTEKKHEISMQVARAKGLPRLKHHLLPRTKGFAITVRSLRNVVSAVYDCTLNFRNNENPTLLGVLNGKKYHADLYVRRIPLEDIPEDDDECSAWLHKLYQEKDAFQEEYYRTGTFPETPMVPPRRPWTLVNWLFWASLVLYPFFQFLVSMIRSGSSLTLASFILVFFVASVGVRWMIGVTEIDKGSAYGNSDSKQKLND", "UniProt Q6UY14": "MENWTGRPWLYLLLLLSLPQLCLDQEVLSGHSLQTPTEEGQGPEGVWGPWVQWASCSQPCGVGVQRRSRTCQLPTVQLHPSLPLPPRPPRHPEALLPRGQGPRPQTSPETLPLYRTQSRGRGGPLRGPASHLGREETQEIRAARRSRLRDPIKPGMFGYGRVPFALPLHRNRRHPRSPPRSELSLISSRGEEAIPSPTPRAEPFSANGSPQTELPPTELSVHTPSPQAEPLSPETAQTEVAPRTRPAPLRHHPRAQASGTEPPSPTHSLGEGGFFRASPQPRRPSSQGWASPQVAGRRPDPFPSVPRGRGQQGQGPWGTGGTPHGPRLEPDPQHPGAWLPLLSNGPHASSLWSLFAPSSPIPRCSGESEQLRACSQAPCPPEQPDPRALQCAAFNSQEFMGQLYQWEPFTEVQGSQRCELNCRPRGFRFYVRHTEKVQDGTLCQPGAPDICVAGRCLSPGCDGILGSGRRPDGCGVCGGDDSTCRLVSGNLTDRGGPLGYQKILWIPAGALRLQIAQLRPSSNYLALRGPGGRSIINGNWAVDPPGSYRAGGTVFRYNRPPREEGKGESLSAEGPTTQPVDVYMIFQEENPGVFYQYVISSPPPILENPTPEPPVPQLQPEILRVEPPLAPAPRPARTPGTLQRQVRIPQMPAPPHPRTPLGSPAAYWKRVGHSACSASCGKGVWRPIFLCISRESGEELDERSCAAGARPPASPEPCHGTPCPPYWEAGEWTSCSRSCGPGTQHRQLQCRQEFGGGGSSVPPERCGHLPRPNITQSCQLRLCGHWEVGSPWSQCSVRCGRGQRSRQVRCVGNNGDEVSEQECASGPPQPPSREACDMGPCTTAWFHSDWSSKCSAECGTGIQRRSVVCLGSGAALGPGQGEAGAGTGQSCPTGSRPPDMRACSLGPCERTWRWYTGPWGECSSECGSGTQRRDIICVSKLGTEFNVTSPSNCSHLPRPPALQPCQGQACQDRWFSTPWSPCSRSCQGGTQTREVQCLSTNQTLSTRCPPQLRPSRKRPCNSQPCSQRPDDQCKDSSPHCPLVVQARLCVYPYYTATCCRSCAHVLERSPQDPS", "UniProt Q04771": "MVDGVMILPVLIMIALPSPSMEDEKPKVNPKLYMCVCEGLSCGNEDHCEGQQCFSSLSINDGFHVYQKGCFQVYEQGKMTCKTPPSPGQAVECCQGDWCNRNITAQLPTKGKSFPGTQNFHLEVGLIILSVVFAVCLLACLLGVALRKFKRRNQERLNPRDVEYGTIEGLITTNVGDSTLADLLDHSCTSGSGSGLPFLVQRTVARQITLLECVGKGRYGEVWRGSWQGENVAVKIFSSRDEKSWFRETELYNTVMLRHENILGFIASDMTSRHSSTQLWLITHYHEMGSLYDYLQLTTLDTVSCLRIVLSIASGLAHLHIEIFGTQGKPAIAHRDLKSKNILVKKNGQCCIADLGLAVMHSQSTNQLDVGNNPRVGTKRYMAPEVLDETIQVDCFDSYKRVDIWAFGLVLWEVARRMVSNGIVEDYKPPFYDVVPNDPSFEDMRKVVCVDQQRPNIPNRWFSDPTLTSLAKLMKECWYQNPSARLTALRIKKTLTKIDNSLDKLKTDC", "UniProt P35612": "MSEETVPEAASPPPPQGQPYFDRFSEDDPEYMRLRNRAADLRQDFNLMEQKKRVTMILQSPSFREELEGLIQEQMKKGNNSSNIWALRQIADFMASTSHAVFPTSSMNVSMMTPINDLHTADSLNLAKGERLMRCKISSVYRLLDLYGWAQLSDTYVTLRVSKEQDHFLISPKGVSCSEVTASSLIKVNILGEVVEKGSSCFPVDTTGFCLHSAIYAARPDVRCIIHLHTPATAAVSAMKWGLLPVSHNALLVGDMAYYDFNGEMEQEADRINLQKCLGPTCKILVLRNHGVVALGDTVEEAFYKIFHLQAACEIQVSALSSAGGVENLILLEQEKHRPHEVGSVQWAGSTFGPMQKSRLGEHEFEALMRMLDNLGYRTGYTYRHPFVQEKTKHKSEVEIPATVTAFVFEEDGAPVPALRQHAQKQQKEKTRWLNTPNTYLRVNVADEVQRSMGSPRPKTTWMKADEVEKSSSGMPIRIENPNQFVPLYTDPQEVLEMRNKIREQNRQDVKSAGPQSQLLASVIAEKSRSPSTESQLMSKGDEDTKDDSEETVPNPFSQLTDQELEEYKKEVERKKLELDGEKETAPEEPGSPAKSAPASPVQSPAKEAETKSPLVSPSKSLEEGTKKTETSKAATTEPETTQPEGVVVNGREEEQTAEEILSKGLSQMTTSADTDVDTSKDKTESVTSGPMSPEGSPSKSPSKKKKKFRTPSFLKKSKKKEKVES", "UniProt P55008": "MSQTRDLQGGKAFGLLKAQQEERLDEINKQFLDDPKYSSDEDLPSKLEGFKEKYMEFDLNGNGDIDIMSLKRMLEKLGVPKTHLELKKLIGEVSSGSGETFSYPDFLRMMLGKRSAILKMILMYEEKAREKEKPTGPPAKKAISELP", "UniProt Q63HM1": "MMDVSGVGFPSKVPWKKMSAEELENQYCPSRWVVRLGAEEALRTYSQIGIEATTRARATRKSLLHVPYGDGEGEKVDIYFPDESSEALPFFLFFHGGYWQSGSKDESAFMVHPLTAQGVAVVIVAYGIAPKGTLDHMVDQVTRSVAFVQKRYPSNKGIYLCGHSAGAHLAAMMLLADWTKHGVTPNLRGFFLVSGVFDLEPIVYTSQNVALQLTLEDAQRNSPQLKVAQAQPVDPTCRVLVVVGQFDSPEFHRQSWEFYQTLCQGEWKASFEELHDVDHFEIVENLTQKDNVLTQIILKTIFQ", "UniProt Q86TW2": "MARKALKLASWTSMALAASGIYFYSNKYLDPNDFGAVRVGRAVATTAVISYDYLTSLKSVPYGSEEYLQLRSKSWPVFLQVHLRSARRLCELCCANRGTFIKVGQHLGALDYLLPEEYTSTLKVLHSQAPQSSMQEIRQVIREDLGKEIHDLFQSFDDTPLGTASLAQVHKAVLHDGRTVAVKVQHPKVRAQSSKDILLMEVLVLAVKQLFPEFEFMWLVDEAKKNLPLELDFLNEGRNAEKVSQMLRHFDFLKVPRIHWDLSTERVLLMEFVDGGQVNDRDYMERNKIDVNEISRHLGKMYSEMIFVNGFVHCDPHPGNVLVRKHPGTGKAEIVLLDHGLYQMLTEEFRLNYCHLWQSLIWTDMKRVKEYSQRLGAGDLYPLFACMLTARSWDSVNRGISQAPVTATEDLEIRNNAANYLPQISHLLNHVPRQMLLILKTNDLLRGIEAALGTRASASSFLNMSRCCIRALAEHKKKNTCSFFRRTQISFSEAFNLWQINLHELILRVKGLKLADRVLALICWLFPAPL", "UniProt Q53H80, whole entry, looked up": "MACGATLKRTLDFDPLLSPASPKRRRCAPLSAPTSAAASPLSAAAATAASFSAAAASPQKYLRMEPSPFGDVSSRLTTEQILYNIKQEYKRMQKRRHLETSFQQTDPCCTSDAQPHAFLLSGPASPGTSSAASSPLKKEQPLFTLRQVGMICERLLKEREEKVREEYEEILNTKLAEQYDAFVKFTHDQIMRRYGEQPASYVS", "UniProt Q04828": "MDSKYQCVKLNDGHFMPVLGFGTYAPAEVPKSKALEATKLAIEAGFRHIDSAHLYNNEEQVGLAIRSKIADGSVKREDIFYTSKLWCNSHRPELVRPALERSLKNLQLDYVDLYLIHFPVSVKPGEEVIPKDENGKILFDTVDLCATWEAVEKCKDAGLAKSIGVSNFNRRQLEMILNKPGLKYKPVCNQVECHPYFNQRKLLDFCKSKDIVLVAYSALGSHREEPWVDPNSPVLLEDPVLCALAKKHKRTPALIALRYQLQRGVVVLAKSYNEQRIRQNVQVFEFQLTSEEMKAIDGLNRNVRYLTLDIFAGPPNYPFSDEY", "UniProt P43652": "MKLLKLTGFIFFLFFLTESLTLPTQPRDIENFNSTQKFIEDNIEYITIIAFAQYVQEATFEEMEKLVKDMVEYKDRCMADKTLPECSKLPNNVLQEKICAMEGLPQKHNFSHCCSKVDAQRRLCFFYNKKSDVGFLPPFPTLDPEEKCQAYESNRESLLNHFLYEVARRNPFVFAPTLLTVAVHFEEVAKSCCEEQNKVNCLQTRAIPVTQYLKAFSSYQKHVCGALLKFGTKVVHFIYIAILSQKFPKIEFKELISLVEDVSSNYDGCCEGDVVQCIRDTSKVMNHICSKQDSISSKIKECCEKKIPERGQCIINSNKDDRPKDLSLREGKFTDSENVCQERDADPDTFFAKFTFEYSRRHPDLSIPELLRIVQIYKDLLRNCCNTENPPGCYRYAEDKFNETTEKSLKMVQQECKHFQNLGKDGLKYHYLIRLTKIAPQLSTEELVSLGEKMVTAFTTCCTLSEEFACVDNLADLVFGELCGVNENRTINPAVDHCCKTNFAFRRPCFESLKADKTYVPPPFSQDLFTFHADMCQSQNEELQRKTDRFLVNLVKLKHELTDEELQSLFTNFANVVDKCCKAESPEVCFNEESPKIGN", "UniProt O15120": "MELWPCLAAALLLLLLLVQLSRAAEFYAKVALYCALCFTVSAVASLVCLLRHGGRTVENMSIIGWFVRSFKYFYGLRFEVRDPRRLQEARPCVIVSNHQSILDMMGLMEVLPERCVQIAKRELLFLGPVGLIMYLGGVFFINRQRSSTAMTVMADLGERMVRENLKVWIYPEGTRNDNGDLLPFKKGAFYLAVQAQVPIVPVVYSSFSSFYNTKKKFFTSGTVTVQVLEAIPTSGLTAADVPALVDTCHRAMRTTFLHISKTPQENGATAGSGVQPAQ", "UniProt Q8WV93": "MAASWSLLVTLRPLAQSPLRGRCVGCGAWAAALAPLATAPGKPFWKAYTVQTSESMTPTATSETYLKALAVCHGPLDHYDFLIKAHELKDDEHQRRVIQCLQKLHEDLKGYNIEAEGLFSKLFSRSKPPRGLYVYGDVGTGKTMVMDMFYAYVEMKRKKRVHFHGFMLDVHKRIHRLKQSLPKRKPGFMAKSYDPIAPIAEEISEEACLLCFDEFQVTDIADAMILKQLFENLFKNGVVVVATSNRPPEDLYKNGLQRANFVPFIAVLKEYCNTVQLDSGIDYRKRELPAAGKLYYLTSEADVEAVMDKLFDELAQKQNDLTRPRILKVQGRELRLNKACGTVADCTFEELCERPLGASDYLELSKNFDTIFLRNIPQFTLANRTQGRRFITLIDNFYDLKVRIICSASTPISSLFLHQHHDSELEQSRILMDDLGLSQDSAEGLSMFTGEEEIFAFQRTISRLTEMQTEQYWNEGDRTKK"}, "source": "the supplement of paper PMC10849652", "note": "Some of the results follow."}
{"compound": "C1=CC=C(C=C1)[C@H](COC2=CC3=C(C=C2)NC(=O)N3)NC(=O)C4=CC=CN(C4=O)CC5=CC(=C(C=C5)F)F", "test": "log2 fold change, soluble protein after heating vs DMSO (PISA); higher = thermal stabilisation; K562 lysate, 10 uM; active = over 0.2 and 3.5 SD of the protein, either way, in both replicates (recomputed)", "summary_of_the_method": "(§1)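 K562 pellets were dounce-homogenised in PBS pH 7.4 containing 1 mM MgCl2, and the crude extract, at 1 mg/mL protein, was exposed to 10 μM compound for 30 min. Aliquots were heated for 3 min across 48°C-58°C, pooled, brought to 0.5% NP-40 at 4°C and spun at 21,000xg for 90 min, with the supernatant taken as soluble protein. TMTpro 16plex LC-MS/MS with equalised channel sums quantified that protein. Values are log-two fold changes in thermal stability relative to solvent controls, taken from duplicates.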"}
{"target": "ACSL6 isoform 1 (UniProt Q9UKU0)", "log2 fold change": "inactive: 0.109"}
{"target": "AIF1L (UniProt Q9BQI0)", "log2 fold change": "inactive: 0.072"}
{"target": "AGTRAP isoform 2 (UniProt Q6RW13)", "log2 fold change": "inactive: -0.124"}
{"target": "AGPAT4 (UniProt Q9NRZ5)", "log2 fold change": "inactive: 0.097"}
{"target": "ADAMTSL4 isoform 3 (UniProt Q6UY14)", "log2 fold change": "inactive: -0.073"}
{"target": "ACTN4 (UniProt K7EJH8)", "log2 fold change": "inactive: -0.018"}
{"target": "ACVR1 (UniProt Q04771)", "log2 fold change": "inactive: -0.052"}
{"compound": "CC1=C(SC2=C1C(=N[C@H](C3=NN=C(N32)C)CC(=O)N)C4=CC=C(C=C4)Cl)C", "test": "log2 fold change, soluble protein after heating vs DMSO (PISA); higher = thermal stabilisation; K562 lysate, 10 uM; active = over 0.2 and 3.5 SD of the protein, either way, in both replicates (recomputed)", "summary_of_the_method": "as §1"}
{"target": "ACSL6 isoform 1 (UniProt Q9UKU0)", "log2 fold change": "inactive: -0.051"}
{"target": "AIF1L (UniProt Q9BQI0)", "log2 fold change": "inactive: -0.031"}
{"target": "AGTRAP isoform 2 (UniProt Q6RW13)", "log2 fold change": "inactive: -0.086"}
{"target": "AGPAT4 (UniProt Q9NRZ5)", "log2 fold change": "inactive: -0.119"}
{"target": "ADAMTSL4 isoform 3 (UniProt Q6UY14)", "log2 fold change": "inactive: -0.103"}
{"target": "ACTN4 (UniProt K7EJH8)", "log2 fold change": "inactive: 0.013"}
{"target": "ACVR1 (UniProt Q04771)", "log2 fold change": "inactive: -0.055"}
{"compound": "CC1=C2C(=CC=C1)N=C(N(C2=O)C3=CC=CC=C3C)CN4C=NC5=C(N=CN=C54)N", "test": "log2 fold change, soluble protein after heating vs DMSO (PISA); higher = thermal stabilisation; K562 lysate, 10 uM; active = over 0.2 and 3.5 SD of the protein, either way, in both replicates (recomputed)", "summary_of_the_method": "as §1"}
{"target": "ADD2 isoform 9 (UniProt P35612)", "log2 fold change": "inactive: -0.609"}
{"target": "AIF1 (UniProt P55008)", "log2 fold change": "inactive: 0.183"}
{"target": "ACVR2B (UniProt Q13705)", "log2 fold change": "inactive: 0.246"}
{"target": "AFMID isoform 2 (UniProt Q63HM1)", "log2 fold change": "inactive: 0.043"}
{"target": "AHI1 (UniProt Q8N157)", "log2 fold change": "inactive: 0.068"}
{"target": "ADCK1 (UniProt Q86TW2)", "log2 fold change": "inactive: 0.06"}
{"target": "ACTB, A0A2R8YEA7", "log2 fold change": "inactive: -0.048"}
{"target": "AKIRIN2 (UniProt Q53H80)", "log2 fold change": "inactive: -0.095"}
{"target": "ADAD1 (UniProt Q96M93)", "log2 fold change": "inactive: 0.015"}
{"target": "AKR1C1 (UniProt Q04828)", "log2 fold change": "inactive: 0.015"}
{"target": "AGFG2 (UniProt O95081)", "log2 fold change": "inactive: -0.022"}
{"target": "AFM (UniProt P43652)", "log2 fold change": "inactive: -0.072"}
{"target": "AGA (UniProt P20933)", "log2 fold change": "inactive: 0.043"}
{"target": "AGPAT2 (UniProt O15120)", "log2 fold change": "inactive: -0.11"}
{"target": "AFDN (UniProt A8MQ02)", "log2 fold change": "inactive: -0.113"}
{"compound": "Cc1sc2c(c1C)C(c1ccc(Cl)cc1)=N[C@@H](CC(=O)OC(C)(C)C)c1nnc(C)n1-2", "test": "log2 fold change, soluble protein after heating vs DMSO (PISA); higher = thermal stabilisation; K562 lysate, 10 uM; active = over 0.2 and 3.5 SD of the protein, either way, in both replicates (recomputed)", "summary_of_the_method": "as §1"}
{"target": "ADD2 isoform 9 (UniProt P35612)", "log2 fold change": "inactive: 0.147"}
{"target": "AIF1 (UniProt P55008)", "log2 fold change": "inactive: 0.063"}
{"target": "ACTR8 (UniProt Q9H981)", "log2 fold change": "inactive: 0.092"}
{"target": "ADCY3 (UniProt O60266)", "log2 fold change": "inactive: -0.001"}
{"target": "ACTN4 (UniProt H7C144)", "log2 fold change": "inactive: 0.073"}
{"target": "ADCK5 (UniProt Q3MIX3)", "log2 fold change": "inactive: 0.212"}
{"target": "ADCY7 (UniProt P51828)", "log2 fold change": "inactive: 0.106"}
{"target": "AIF1L (UniProt Q9BQI0)", "log2 fold change": "inactive: 0.049"}
{"target": "AKIRIN2 (UniProt Q53H80)", "log2 fold change": "inactive: -0.142"}
{"target": "ADAD1 (UniProt Q96M93)", "log2 fold change": "inactive: -0.027"}
{"target": "AKR1C1 (UniProt Q04828)", "log2 fold change": "inactive: -0.104"}
{"target": "ADAMTSL4 isoform 3 (UniProt Q6UY14)", "log2 fold change": "inactive: -0.021"}
{"target": "ACTN4 (UniProt K7EJH8)", "log2 fold change": "inactive: 0.001"}
{"target": "ACVR1 (UniProt Q04771)", "log2 fold change": "inactive: -0.102"}
{"target": "AKR1B10 (UniProt O60218)", "log2 fold change": "inactive: -0.196"}
{"target": "AGFG2 (UniProt O95081)", "log2 fold change": "inactive: 0.109"}
{"target": "AJUBA (UniProt Q96IF1)", "log2 fold change": "inactive: 0.199"}
{"target": "AFG1L (UniProt Q8WV93)", "log2 fold change": "inactive: -0.013"}
{"target": "AKAP17A (UniProt Q02040)", "log2 fold change": "inactive: -0.024"}
{"compound": "c1ccc([C@@H]2C[C@H]2NC2CCNCC2)cc1", "test": "log2 fold change, soluble protein after heating vs DMSO (PISA); higher = thermal stabilisation; K562 lysate, 10 uM; active = over 0.2 and 3.5 SD of the protein, either way, in both replicates (recomputed)", "summary_of_the_method": "as §1"}
{"target": "ADD2 isoform 9 (UniProt P35612)", "log2 fold change": "inactive: 0.119"}
{"target": "AHCTF1 isoform 2 (UniProt Q8WYP5)", "log2 fold change": "inactive: 0.142"}
{"target": "AIF1 (UniProt P55008)", "log2 fold change": "inactive: 0.045"}
{"target": "AFMID isoform 2 (UniProt Q63HM1)", "log2 fold change": "inactive: -0.009"}
{"target": "ADCK1 (UniProt Q86TW2)", "log2 fold change": "inactive: -0.165"}
{"target": "ACSL6 isoform 1 (UniProt Q9UKU0)", "log2 fold change": "inactive: -0.038"}
{"target": "AIF1L (UniProt Q9BQI0)", "log2 fold change": "inactive: -0.022"}
{"target": "ACTB, A0A2R8YEA7", "log2 fold change": "inactive: -0.229"}
{"target": "AKIRIN2 (UniProt Q53H80)", "log2 fold change": "inactive: 0.103"}
{"target": "AGTRAP isoform 2 (UniProt Q6RW13)", "log2 fold change": "inactive: -0.013"}
{"target": "AGPAT4 (UniProt Q9NRZ5)", "log2 fold change": "inactive: 0.029"}
{"target": "AKR1C1 (UniProt Q04828)", "log2 fold change": "inactive: 0.088"}
{"target": "ADAMTSL4 isoform 3 (UniProt Q6UY14)", "log2 fold change": "inactive: 0.066"}
{"target": "AGO2 (UniProt E5RJY2)", "log2 fold change": "inactive: -0.101"}
{"target": "ACTN4 (UniProt K7EJH8)", "log2 fold change": "inactive: -0.042"}
{"target": "ACVR1 (UniProt Q04771)", "log2 fold change": "inactive: -0.126"}
{"target": "AFM (UniProt P43652)", "log2 fold change": "inactive: 0.08"}
{"target": "AGPAT2 (UniProt O15120)", "log2 fold change": "inactive: 0.034"}
